# Earlier results, collected in article PMC5704914 (Biochemistry, 2017).
# Tested on: L-type channel
# Conditions: ref [71], [72]; cited from earlier work
smiles,measurement,value
COC(=O)C1=C(C)NC(C)=C(C(=O)OC)C1c1ccccc1[N+](=O)[O-] [nifedipine],behavioral effect,antidepressant
